From patent publication US20100087466A1 (priority 2008, published 2010)
*: point of attachment. Pbf = Cc1c(C)c(S(=O)(=O)*)c(C)c2c1OC(C)(C)C2; Octanoyl = CCCCCCCC(=O)*; Cbz = O=C(OCc1ccccc1)*; Boc = CC(C)(C)OC(=O)*; Bn = c1ccc(C*)cc1; NHBu = CCCCN*

Test: general procedure: Fmoc solid-phase peptide synthesis; rink amide AM resin (0.68 mmol/g); PyBOP/HOBt/DIEA (SPPS); BOP/DIEA (solution phase)
Details: coupling step, TFA

Row | Substance | step yield [%]
1 | 3-(Octylamido)-nicotinoyl-Tyr(Bzl)-Leu-Pro-Arg(Pbf)-OMe | 93
2 | Octanoyl-Tyr(Bzl)-Leu-Hyp-Arg(Boc)2N(CH2)5 | 84
3 | Octanoyl-Y(Bn)LPR(Pbf)-OMe | 96

Same assay, conditions: late stage modification step, TFA

Row | Substance | step yield [%]
4 | Ac-Tyr(Bzl)-Leu-Pro-Arg(Pbf)-N(CH2)5 | 100
5 | Ac-Tyr(Bzl)-Leu-Pro-Arg(Pbf)-Pro-NH(CH2)3Ph | 92
6 | Ac-Tyr(Bzl)-Leu-Pro-Orn-Pro-NH(CH2)3Ph | 64
7 | Ac-Tyr-Leu-Pro-Arg(Pbf)-N(CH2)5 | 77
8 | Ac-Tyr-Leu-Pro-Orn(Boc)-Pro-NH(CH2)3Ph | 45
9 | Ac-Tyr-Leu-Pro-Orn-Pro-NH(CH2)3Ph | 75
10 | Ac-Y(Bn)LPR(Pbf)-OH | 83
11 | Ac-Y(Bn)LPR(Pbf)P-NHBu | 94
12 | Ac-Y(Bn)LPR(Pbf)P-OH | 90
13 | Boc-Tyr(Bzl)-Leu-Pro-Arg(Cbz)-Pro-NH(CH2)3Ph | 75
14 | Boc-Tyr-Leu-Pro-Arg-Pro-NH(CH2)3Ph | 39
15 | Boc-Y(Bn)LPR(Cbz)P-OH | 70
16 | Octanoyl-Tyr(Bzl)-Leu-Pro-Arg(Pbf)-N(CH2)5 | 89
17 | Octanoyl-Y(Bn)LPR(Pbf)-OH | 92

Same assay, conditions: late stage modification step, TFA salt

Row | Substance | step yield [%]
18 | Ac-Tyr-Leu-Pro-Arg-N(CH2)5.TFA | 81
19 | Ac-Tyr-Leu-Pro-Arg-Pro-NH(CH2)3Ph.TFA | 56
20 | Ac-Tyr-Leu-Pro-Arg-Pro-NHBu.TFA | 63

Same assay, conditions: late stage modification step, trifluoroacetate salt

Row | Substance | step yield [%]
21 | 3-(Octylamido)-nicotinoyl-Tyr(Bzl)-Leu-Pro-Arg-OMe trifluoroacetate | 45
22 | Octanoyl-(D)-Tyr(Bzl)-Leu-Pro-Arg-OMe trifluoroacetate | 13
23 | Octanoyl-Tyr(Bzl)-Leu-Hyp-ArgN(CH2)5 trifluoroacetate | 48
24 | Octanoyl-Tyr(Bzl)-Leu-Pro-Arg-N(CH2)5 trifluoroacetate | 28
25 | Octanoyl-Tyr(Bzl)-Leu-Pro-Arg-OMe trifluoroacetate | 58
26 | Octanoyl-Tyr-Leu-Pro-Arg-N(CH2)5 trifluoroacetate | 18

Test: peptide synthesis
Details: coupling step, TFA

Row | Substance | step yield [%]
27 | Ac-Tyr(Bzl)-Leu-Pro-Orn(2-pyrimidine)-Pro-NH(CH2)3Ph | 50
28 | Ac-Tyr(Bzl)-Leu-Pro-Orn(Boc)-Pro-NH(CH2)3Ph | 100
29 | Ac-Y(Bn)LPR(Pbf)-OMe | 79
30 | Ac-Y(Bn)LPR(Pbf)P-OMe | 88
31 | Boc-Leu-Pro-Arg(bis-Cbz)-Pro-OMe | 95
32 | Boc-Tyr(Bzl)-Leu-Pro-Arg(bis-Cbz)-Pro-OMe | 100

Test: Fmoc solid-phase peptide synthesis; rink amine AM resin; PyBOP/HOBt/DIEA (SPPS); BOP/DIEA (solution phase)
Details: whole synthesis, scale 100 mg @ 0.68 mmol/g, TFA

Row | Substance | isolated mass [mg] | isolated yield [%]
33 | Ac-Tyr-Leu-pro-Arg-Pro-NH2 | 15.2 | 36
